# This is one part of the list.
# B1: PX9916F-bfa-443-24-443 (Bacteroides fragilis) (protein)
# chain: DIRPVGSVIPQTAEEYRALLARAYLNVPNDRGLACLRSDEMLVNDNEYDRNSYGDIERWNDVSPFPGTSQFTWSNFYNVLFIANQVIESQKEITEGTPEVVNQLVGEAHLLRAYLHFVLVNLHGQPYTKSGALNSKSIPLKLDTDLEKTLGRNTVEEVYTSILSDIEHARELINKEKWETVFSYRFNVLSVDALQSRVSLYMGAWPKCLESAEAVLAKKSVLVDMNETPLALPNHFESVESITALEQVMGSSVNNAVWVPATFLALYQEGDKRLAAYFAAPDENGNRKSSKGGKREFSCTFRVGELYLNAAEAAANMDKLPHARMRLLELMRKRYTPEAYDKKENAVNVMDKNALISEILNERARELAFEGHRWFDLRRTTRPRMVKVLQGKTYILEQDDPRYTIPIPRDAIAANPGLAN
# What was measured:
# Test in all cases: glycan array binding signal (z-score within array); higher = stronger binding
# Conditions in all cases: glycan notation: IUPAC condensed, linker removed
# [1] = molecular target: Gal(b1-4)GlcNAc(b1-6)GalNAc
# Outline: (§1)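 Glycan array data came from 3228 arrays in the Consortium for Functional Glycomics database, and only arrays with an available protein sequence were kept. Glycan names were put into IUPAC-condensed notation, and columns mapping to the same glycan were averaged. The binding signal is a within-array Z-score, averaged across arrays of one protein sequence run at different concentrations or buffers and across linkers. A negative Z-score can be read as non-binding.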
# [2] = molecular target: Gal(b1-4)GlcNAc(b1-6)[Gal(b1-3)]GalNAc
# Outline: as §1
# [3] = molecular target: Gal(b1-4)GlcNAc(b1-6)[Gal(b1-4)GlcNAc(b1-3)]GalNAc
# Outline: as §1
# Gal(b1-4)GlcNAc6P = molecular target: Gal(b1-4)GlcNAc6P
# Outline: as §1
# Gal(b1-6)Gal = molecular target: Gal(b1-6)Gal
# Outline: as §1
# Gal3S(b1-3)GalNAc = molecular target: Gal3S(b1-3)GalNAc
# Outline: as §1
# Gal3S(b1-3)GlcNAc = molecular target: Gal3S(b1-3)GlcNAc
# Outline: as §1
# [4] = molecular target: Gal3S(b1-3)[Fuc(a1-4)]GlcNAc
# Outline: as §1
# Gal3S(b1-4)Glc = molecular target: Gal3S(b1-4)Glc
# Outline: as §1
# Gal3S(b1-4)Glc6S = molecular target: Gal3S(b1-4)Glc6S
# Outline: as §1
# Gal3S(b1-4)GlcNAc = molecular target: Gal3S(b1-4)GlcNAc
# Outline: as §1
# [5] = molecular target: Gal3S(b1-4)[Fuc(a1-3)]Glc6S
# Outline: as §1
# [6] = molecular target: Gal3S(b1-4)[Fuc(a1-3)]GlcNAc
# Outline: as §1
# [7] = molecular target: Gal3S(b1-4)[Fuc(a1-3)]GlcNAc6S
# Outline: as §1
# Gal3S4S(b1-4)GlcNAc = molecular target: Gal3S4S(b1-4)GlcNAc
# Outline: as §1
# Gal3S6S(b1-4)GlcNAc = molecular target: Gal3S6S(b1-4)GlcNAc
# Outline: as §1
# Gal3S6S(b1-4)GlcNAc6S = molecular target: Gal3S6S(b1-4)GlcNAc6S
# Outline: as §1
# Gal4S(b1-4)GlcNAc = molecular target: Gal4S(b1-4)GlcNAc
# Outline: as §1
# Gal4S6S(b1-4)GlcNAc = molecular target: Gal4S6S(b1-4)GlcNAc
# Outline: as §1
# Gal6P(b1-4)GlcNAc = molecular target: Gal6P(b1-4)GlcNAc
# Outline: as §1
# Gal6S(b1-3)GlcNAc = molecular target: Gal6S(b1-3)GlcNAc
# Outline: as §1
# Gal6S(b1-3)GlcNAc6S = molecular target: Gal6S(b1-3)GlcNAc6S
# Outline: as §1
# Gal6S(b1-4)Glc = molecular target: Gal6S(b1-4)Glc
# Outline: as §1
# Gal6S(b1-4)Glc6S = molecular target: Gal6S(b1-4)Glc6S
# Outline: as §1
# Gal6S(b1-4)GlcNAc = molecular target: Gal6S(b1-4)GlcNAc
# Outline: as §1
# Gal6S(b1-4)GlcNAc6S = molecular target: Gal6S(b1-4)GlcNAc6S
# Outline: as §1
# GalNAc(a1-3)Gal = molecular target: GalNAc(a1-3)Gal
# Outline: as §1
# GalNAc(a1-3)GalNAc = molecular target: GalNAc(a1-3)GalNAc
# Outline: as §1
# [8] = molecular target: GalNAc(a1-3)GalNAc(b1-3)Gal(a1-4)Gal(b1-4)Glc
# Outline: as §1
# [9] = molecular target: GalNAc(a1-3)GalNAc(b1-3)Gal(a1-4)Gal(b1-4)GlcNAc
# Outline: as §1
# GalNAc(b1-3)Gal = molecular target: GalNAc(b1-3)Gal
# Outline: as §1
# [10] = molecular target: GalNAc(b1-3)Gal(a1-4)Gal(b1-4)GlcNAc
# Outline: as §1
# [11] = molecular target: GalNAc(b1-3)Gal(a1-4)Gal(b1-4)GlcNAc(b1-3)Gal(b1-4)Glc
# Outline: as §1
# [12] = molecular target: GalNAc(b1-3)Gal(a1-6)Gal(b1-4)Glc
# Outline: as §1
# GalNAc(b1-3)GalNAc = molecular target: GalNAc(b1-3)GalNAc
# Outline: as §1
# GalNAc(b1-3)GlcNAc = molecular target: GalNAc(b1-3)GlcNAc
# Outline: as §1
# GalNAc(b1-4)Gal(b1-4)Glc = molecular target: GalNAc(b1-4)Gal(b1-4)Glc
# Outline: as §1
# GalNAc(b1-4)GlcNAc = molecular target: GalNAc(b1-4)GlcNAc
# Outline: as §1
binder,measurement,setting,value
B1,glycan array binding signal (z-score),[1],1.24
same,glycan array binding signal (z-score),[2],-0.4
same,glycan array binding signal (z-score),[3],-0.27
same,glycan array binding signal (z-score),Gal(b1-4)GlcNAc6P,0.285
same,glycan array binding signal (z-score),Gal(b1-6)Gal,-0.05
same,glycan array binding signal (z-score),Gal3S(b1-3)GalNAc,-0.858
same,glycan array binding signal (z-score),Gal3S(b1-3)GlcNAc,0.98
same,glycan array binding signal (z-score),[4],-0.394
same,glycan array binding signal (z-score),Gal3S(b1-4)Glc,1.14
same,glycan array binding signal (z-score),Gal3S(b1-4)Glc6S,-0.492
same,glycan array binding signal (z-score),Gal3S(b1-4)GlcNAc,0.715
same,glycan array binding signal (z-score),[5],-0.439
same,glycan array binding signal (z-score),[6],-0.371
same,glycan array binding signal (z-score),[7],0.107
same,glycan array binding signal (z-score),Gal3S4S(b1-4)GlcNAc,1.19
same,glycan array binding signal (z-score),Gal3S6S(b1-4)GlcNAc,1.59
same,glycan array binding signal (z-score),Gal3S6S(b1-4)GlcNAc6S,-0.581
same,glycan array binding signal (z-score),Gal4S(b1-4)GlcNAc,-1.25
same,glycan array binding signal (z-score),Gal4S6S(b1-4)GlcNAc,-0.274
same,glycan array binding signal (z-score),Gal6P(b1-4)GlcNAc,0.718
same,glycan array binding signal (z-score),Gal6S(b1-3)GlcNAc,-0.111
same,glycan array binding signal (z-score),Gal6S(b1-3)GlcNAc6S,-0.458
same,glycan array binding signal (z-score),Gal6S(b1-4)Glc,0.371
same,glycan array binding signal (z-score),Gal6S(b1-4)Glc6S,-0.274
same,glycan array binding signal (z-score),Gal6S(b1-4)GlcNAc,-1.66
same,glycan array binding signal (z-score),Gal6S(b1-4)GlcNAc6S,-0.714
same,glycan array binding signal (z-score),GalNAc(a1-3)Gal,-0.667
same,glycan array binding signal (z-score),GalNAc(a1-3)GalNAc,-1.08
same,glycan array binding signal (z-score),[8],-0.04
same,glycan array binding signal (z-score),[9],-0.829
same,glycan array binding signal (z-score),GalNAc(b1-3)Gal,-0.418
same,glycan array binding signal (z-score),[10],0.737
same,glycan array binding signal (z-score),[11],0.078
same,glycan array binding signal (z-score),[12],0.075
same,glycan array binding signal (z-score),GalNAc(b1-3)GalNAc,-0.249
same,glycan array binding signal (z-score),GalNAc(b1-3)GlcNAc,-0.227
same,glycan array binding signal (z-score),GalNAc(b1-4)Gal(b1-4)Glc,-0.197
same,glycan array binding signal (z-score),GalNAc(b1-4)GlcNAc,-0.017

# Laid out differently: results already given
binder | measurement | setting | value
B1 | glycan array binding signal (z-score) | [4] | -0.394
same | glycan array binding signal (z-score) | Gal6S(b1-4)GlcNAc | -1.66

# From the supplement of paper PMC8728848
